# At least one compound was matched to its structure with a doubt left.
# Target: T1, RXR-α ΔAF2 LBD (Homo sapiens, UniProt P19793)
# T1 construct: RXRαΔAF2 (amino acids 225-446); His-tag; made in house
# T1 sequence (P19793 225-446): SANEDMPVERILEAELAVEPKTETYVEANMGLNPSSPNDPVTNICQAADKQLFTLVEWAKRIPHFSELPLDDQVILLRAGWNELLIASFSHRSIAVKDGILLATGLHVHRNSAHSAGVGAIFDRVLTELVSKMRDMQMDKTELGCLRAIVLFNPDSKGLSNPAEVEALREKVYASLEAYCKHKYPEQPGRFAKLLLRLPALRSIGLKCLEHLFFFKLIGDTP
# Test: Fluorescence polarization binding of receptor LBD to fluorescein-labeled co-repressor peptides
# Settings: 10 nM fluorescein-labeled NCoR ID-C or SMRT ID-C peptide, no ligand
row,Kd,Compound
1,390 nM,CC[C@H](C)[C@H](NC(=O)[C@H](CC(=O)O)NC(=O)[C@H](CCC(=O)O)NC(=O)[C@H](CC(C)C)NC(=O)CNC(=O)[C@H](CC(C)C)NC(=O)[C@H](CC(N)=O)NC(=O)[C@H](CO)NC(=O)[C@H](C)NC(=O)[C@@H]1CCCN1C(=O)[C@H](CC(=O)O)NC(=O)[C@H](C)NC(=O)[C@H](Cc1ccccc1)NC(=O)[C@H](CO)NC(=O)[C@H](Cc1c[nH]cn1)NC(=O)CN)C(=O)N[C@H](C(=O)N[C@@H](CCCNC(=N)N)C(=O)N[C@@H](CCCCN)C(=O)N[C@@H](C)C(=O)N[C@@H](CC(C)C)C(=O)N[C@@H](CCSC)C(=O)NCC(=O)N[C@@H](CO)C(=O)N[C@@H](Cc1ccccc1)C(=O)O)[C@@H](C)CC [NcoR]
2,250 nM,CC[C@H](C)[C@H](NC(=O)[C@H](C)NC(=O)[C@H](CCC(=O)O)NC(=O)[C@H](CC(C)C)NC(=O)CNC(=O)[C@H](CCSC)NC(=O)[C@H](CC(N)=O)NC(=O)[C@@H](N)[C@@H](C)O)C(=O)N[C@H](C(=O)N[C@@H](CCCNC(=N)N)C(=O)N[C@@H](CCCCN)C(=O)N[C@@H](C)C(=O)N[C@@H](CC(C)C)C(=O)N[C@@H](CCSC)C(=O)NCC(=O)N[C@@H](CCCCN)C(=O)N[C@@H](Cc1ccc(O)cc1)C(=O)N[C@@H](CC(=O)O)C(=O)N[C@@H](CCC(N)=O)C(=O)N[C@@H](Cc1c[nH]c2ccccc12)C(=O)N[C@@H](CCC(=O)O)C(=O)N[C@@H](CCC(=O)O)C(=O)O)[C@@H](C)CC [SMRT]

# Reference: patent US20050227220A1, “Compositions and Methods for Evaluating and Designing Nuclear Receptor Ligands that Modulate Co-Regulator Affinity” (priority 2002, published 2005)
